PubChem BioAssay AID1259254 | NCATS, 2017
Shown is an unselected part of about 59,000 deposited reagents. About 1,550 of all reagents (2.6%) count as active. 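G2 share is only a proxy for re-replication; each gene was hit by three separate siRNAs, and active genes were retested.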 Raw values vary from plate to plate and are shown uncorrected. Entries without a mark were called inactive. Reagents against one gene are numbered here. Not stated in the record: the amount of reagent.

- Test: 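Genome-wide screen for genes that prevent DNA re-replication in cancer cells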 (primary screen)
- Cells: human HCT116 colorectal cancer cells
- Reagent: single siRNA against human genes
- Time to read-out: 3 days
- Detection: 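Imaged Hoechst DNA stain sorts each cell into a cycle phase by DNA amount; per plate, G2 fraction set to 0% for non-targeting and 100% for GMNN siRNA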
- Scale: G2 robust z-score and G2 cells, % of GMNN control: higher = more G2 cells, more excess DNA replication; raw share of cells in G2: higher = larger share of cells with G2 DNA content
- Hit rule: 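An siRNA counts as active if its G2 robust z-score lies at least 5 MADs above the screen median; here such calls match roughly 38% of GMNN control or more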

no.	Gene	siRNA no.	G2 robust z-score	G2 cells, % of GMNN control	raw share of cells in G2 (%)
1	PLK3 (polo like kinase 3)	1	-1	-4.09	4.03
2	PLK3 (polo like kinase 3)	2	-1.2	-5.51	3.79
3	PLK3 (polo like kinase 3)	3	0.261	4.8	5.72
4	CCL24 (C-C motif chemokine ligand 24)	1	-0.901	-3.37	4.55
5	CCL24 (C-C motif chemokine ligand 24)	2	-0.754	-2.34	3.75
6	CCL24 (C-C motif chemokine ligand 24)	3	1.81	15.7	9.16
7	ZNF473 (zinc finger protein 473)	1	-0.0655	2.51	3.68
8	ZNF473 (zinc finger protein 473)	2	-0.197	1.58	6.62
9	ZNF473 (zinc finger protein 473)	3	-0.663	-1.69	3.1
10	DNAI7 (dynein axonemal intermediate chain 7)	1	0.536	6.74	7.11
11	DNAI7 (dynein axonemal intermediate chain 7)	2	-0.516	-0.661	3.86
12	DNAI7 (dynein axonemal intermediate chain 7)	3	-0.234	1.32	3.56
13	DNTTIP2 (deoxynucleotidyltransferase terminal interacting protein 2)	1	7.11 (active)	53	24.1
14	DNTTIP2 (deoxynucleotidyltransferase terminal interacting protein 2)	2	-0.114	2.17	5.37
15	DNTTIP2 (deoxynucleotidyltransferase terminal interacting protein 2)	3	-0.107	2.22	3.95
16	SHROOM4 (shroom family member 4)	1	-0.0306	2.75	6.29
17	SHROOM4 (shroom family member 4)	2	1.58	14.1	9.55
18	SHROOM4 (shroom family member 4)	3	0.108	3.73	5.83
19	GMPPA (GDP-mannose pyrophosphorylase A)	1	0.0738	3.49	5.34
20	GMPPA (GDP-mannose pyrophosphorylase A)	2	0.267	4.85	5.58
21	GMPPA (GDP-mannose pyrophosphorylase A)	3	0.429	5.99	8.88
22	LINC03122 (long independently transcribed non-coding RNA 3122)	1	-0.455	-0.237	3.55
23	LINC03122 (long independently transcribed non-coding RNA 3122)	2	-0.617	-1.38	2.51
24	LINC03122 (long independently transcribed non-coding RNA 3122)	3	-1.02	-4.19	1.99
25	ART1 (ADP-ribosyltransferase 1)	1	-1.16	-5.18	2.96
26	ART1 (ADP-ribosyltransferase 1)	2	1.76	15.3	10.5
27	ART1 (ADP-ribosyltransferase 1)	3	0.2	4.38	5.62
28	OGDHL (oxoglutarate dehydrogenase L)	1	1.27	11.9	9.29
29	OGDHL (oxoglutarate dehydrogenase L)	2	-0.818	-2.79	5.21
30	OGDHL (oxoglutarate dehydrogenase L)	3	0.00988	3.04	5.53
31	EPHA3 (EPH receptor A3)	1	-1.07	-4.58	4.09
32	EPHA3 (EPH receptor A3)	2	0.0886	3.59	6.62
33	EPHA3 (EPH receptor A3)	3	0	2.97	5.07
34	DUXAP10 (double homeobox A pseudogene 10)	1	-0.411	0.0734	3.14
35	DUXAP10 (double homeobox A pseudogene 10)	2	-0.261	1.13	4.06
36	DUXAP10 (double homeobox A pseudogene 10)	3	-0.816	-2.78	2.36
37	MMP27 (matrix metallopeptidase 27)	1	-1.45	-7.24	2.54
38	MMP27 (matrix metallopeptidase 27)	2	0.179	4.23	5.87
39	MMP27 (matrix metallopeptidase 27)	3	0.21	4.45	5.92
40	C22orf31 (chromosome 22 open reading frame 31)	1	-0.149	1.92	3.97
41	C22orf31 (chromosome 22 open reading frame 31)	2	0.255	4.76	6.2
42	C22orf31 (chromosome 22 open reading frame 31)	3	-0.747	-2.29	2.95
43	PCM1 (pericentriolar material 1)	1	-0.164	1.82	6.21
44	PCM1 (pericentriolar material 1)	2	0.543	6.79	7.7
45	PCM1 (pericentriolar material 1)	3	0.668	7.67	6.73
46	CCDC184 (coiled-coil domain containing 184)	1	-0.188	1.64	4.34
47	CCDC184 (coiled-coil domain containing 184)	2	-0.285	0.959	3.82
48	CCDC184 (coiled-coil domain containing 184)	3	0.696	7.87	8.01
49	METTL24 (methyltransferase like 24)	1	0.455	6.17	5.94
50	METTL24 (methyltransferase like 24)	2	-0.417	0.0355	3.56
51	METTL24 (methyltransferase like 24)	3	0.537	6.74	5.25
52	HCRTR1 (hypocretin receptor 1)	1	1.28	12	6.95
53	HCRTR1 (hypocretin receptor 1)	2	3.97	30.9	16.9
54	HCRTR1 (hypocretin receptor 1)	3	0.766	8.36	7.44
55	SDR42E1 (short chain dehydrogenase/reductase family 42E, member 1)	1	-0.722	-2.11	4.69
56	SDR42E1 (short chain dehydrogenase/reductase family 42E, member 1)	2	0.271	4.88	6.32
57	SDR42E1 (short chain dehydrogenase/reductase family 42E, member 1)	3	-0.158	1.86	5.76
58	NEURL1 (neuralized E3 ubiquitin protein ligase 1)	1	-0.465	-0.304	5.16
59	NEURL1 (neuralized E3 ubiquitin protein ligase 1)	2	0.279	4.93	6.78
60	NEURL1 (neuralized E3 ubiquitin protein ligase 1)	3	-1.04	-4.38	3.14
61	ZBTB42 (zinc finger and BTB domain containing 42)	1	0.345	5.39	5.78
62	ZBTB42 (zinc finger and BTB domain containing 42)	2	1.77	15.4	9.86
63	ZBTB42 (zinc finger and BTB domain containing 42)	3	-0.961	-3.8	2.08
64	NBPF3 (NBPF member 3)	1	0.93	9.51	7.27
65	NBPF3 (NBPF member 3)	2	-0.735	-2.2	2.8
66	NBPF3 (NBPF member 3)	3	0.874	9.12	5.17
67	ARHGEF10 (Rho guanine nucleotide exchange factor 10)	1	-0.0436	2.66	6.49
68	ARHGEF10 (Rho guanine nucleotide exchange factor 10)	2	-0.112	2.18	5.68
69	ARHGEF10 (Rho guanine nucleotide exchange factor 10)	3	-0.717	-2.08	3.13
70	PITX2 (paired like homeodomain 2)	1	6.56 (active)	49.1	20.8
71	PITX2 (paired like homeodomain 2)	2	-1.17	-5.25	2.72
72	PITX2 (paired like homeodomain 2)	3	-0.276	1.02	3.8
73	NSMCE1 (NSE1 component of SMC5/6 complex)	1	0.46	6.2	5.82
74	NSMCE1 (NSE1 component of SMC5/6 complex)	2	-0.392	0.208	3.03
75	NSMCE1 (NSE1 component of SMC5/6 complex)	3	-0.0407	2.68	3.61
76	CCDC134 (coiled-coil domain containing 134)	1	-0.251	1.2	4.94
77	CCDC134 (coiled-coil domain containing 134)	2	3.79	29.6	17.3
78	CCDC134 (coiled-coil domain containing 134)	3	0.682	7.77	4.5
79	PMVK (phosphomevalonate kinase)	1	-0.512	-0.632	5.39
80	PMVK (phosphomevalonate kinase)	2	-0.353	0.484	5.37
81	PMVK (phosphomevalonate kinase)	3	2.15	18.1	9.49
82	GABRA4 (gamma-aminobutyric acid type A receptor subunit alpha4)	1	1.01	10	8.94
83	GABRA4 (gamma-aminobutyric acid type A receptor subunit alpha4)	2	-0.364	0.406	4.92
84	GABRA4 (gamma-aminobutyric acid type A receptor subunit alpha4)	3	-0.0694	2.48	5.34
85	GSTP1 (glutathione S-transferase pi 1)	1	2.23	18.7	12.8
86	GSTP1 (glutathione S-transferase pi 1)	2	-0.446	-0.17	4.14
87	GSTP1 (glutathione S-transferase pi 1)	3	-0.712	-2.05	4.3
